The test system of this assay is P388 leukemia ip, CD2F1 mice, survival T/C. Briefly: NCI In Vivo Anticancer Drug Screen. Data for tumor model P388 Leukemia (intraperitoneal) in CD2F1 (CDF1) mice. The settings on record: T/C endpoint: median survival time, higher T/C = longer survival.
Setting [1] is: dose: 25.0 mg/kg/injection, schedule: Q04DX003 (ip), vehicle: saline.
Setting [2] is: dose: 100.0 mg/kg/injection, schedule: Q01DX009 (ip), vehicle: saline with Tween-80.
Setting [3] is: dose: 200.0 mg/kg/injection, schedule: Q01DX009 (ip), vehicle: saline with Tween-80.
[4] abbreviates: dose: 240.0 mg/kg/injection, schedule: Q01DX005 (ip), vehicle: saline with Tween-80.

The list does not hold the whole screen: it gathers tests that were run many times, whatever their T/C, doses with no T/C, and many T/C values between a quarter and a half above the control. Further doses and runs are listed elsewhere. T/C is the treated group as % of the vehicle group. Some entries give survivors of the animals treated and no T/C: the source holds a T/C of zero for them, seemingly a mark for toxic or unscored doses. Some survivor counts are full or nearly so, which does not show that the dose was tolerated: the source hardly ever lists a survival T/C far under the control, and the zero likely stands for such cases as well. Survivors were counted at the toxicity check, usually on the fifth day, unless a day is given; later deaths do not show. Schedules are NCI's codes, taken here to give the interval after Q, in days (D) or hours (H), and the number of doses after X. Some entries hold several experiments; the values are given in rising order. For survival time, the PubChem record calls one and a half times the control and up active, and a quarter to a half above the control has no call in these data; cut-offs in other NCI protocols can differ. Some T/C values are followed by the survivors on the day toxicity was checked, most often the fifth; without a count, all were alive then.

Take `CC1OC(O[C@H]2C[C@](O)(C(=O)CO)Cc3c(O)c4c(c(O)c32)C(=O)c2c(OCc3ccccc3)cccc2C4=O)CC(N)C1O` (some centres undefined): the T/C (dose: 3.13 mg/kg/injection, schedule: Q04DX003 (ip), vehicle: distilled water + Tween-80) was 125 % of control; the T/C (dose: 12.5 mg/kg/injection, schedule: Q04DX003 (ip), vehicle: distilled water + Tween-80) was 131 % of control; the T/C (dose: 25.0 mg/kg/injection, schedule: Q04DX003 (ip), vehicle: distilled water + Tween-80) was 128 % of control; the T/C (dose: 50.0 mg/kg/injection, schedule: Q04DX003 (ip), vehicle: distilled water + Tween-80) is 128 % of control.

Regarding `O=NN1CCCNC1=O`, the T/C reads like this: (dose: 10.0 mg/kg/injection, schedule: Q01DX009 (ip), vehicle: saline with Tween-80) 127 % of control; under setting [1], 136 % of control; (dose: 150.0 mg/kg/injection, schedule: Q04DX003 (ip), vehicle: saline) 125 % of control. The survivor count (dose: 150.0 mg/kg/injection, schedule: Q01DX009 (ip), vehicle: saline with Tween-80) is 5 of 6; the survivor count (dose: 200.0 mg/kg/injection, schedule: Q04DX003 (ip), vehicle: saline) is recorded as 4 of 6; the survivor count (dose: 400.0 mg/kg/injection, schedule: Q04DX003 (ip), vehicle: saline) was 1 of 6.

Take `C/C(=N\NC(=S)N1CCCCC1C)c1nccs1` (centres undefined): under “dose: 50.0 mg/kg/injection, schedule: Q01DX005 (ip), vehicle: saline with Tween-80”, the T/C is 130 % of control. Further, the survivor count reads like this: (dose: 100.0 mg/kg/injection, schedule: Q01DX005 (ip), vehicle: saline with Tween-80) 4 of 6 and 5 of 6; (dose: 200.0 mg/kg/injection, schedule: Q01DX005 (ip), vehicle: saline with Tween-80) 0 of 6.

`O=[Se]([O][Sn]([O][Se](=O)c1ccccc1)([O][Se](=O)c1ccccc1)[O][Se](=O)c1ccccc1)c1ccccc1` (centres undefined): the survivor count is reported as 0 of 6 under setting [2] and 0 of 6 under setting [3].

Regarding `COc1cc2c(cc1OC)[C@H](Cc1ccc(Oc3cc4c(cc3O)-c3c(OC)c(OC)cc5c3[C@@H](C4)N(C)CC5)cc1)N(C)CC2`, the survivor count (dose: 190.0 mg/kg/injection, schedule: Q01DX005 (ip), vehicle: Klucel (hydroxypropylcellulose) (HPC)) is given as 3 of 6.

In the case of `OCCN1CCN(CC/C=C2\c3ccccc3Sc3ccc(Cl)cc32)CC1`, the T/C is, setting by setting: (dose: 12.5 mg/kg/injection, schedule: Q01DX009 (ip), vehicle: saline) 126 % of control; (dose: 12.5 mg/kg/injection, schedule: Q04DX003 (ip), vehicle: saline) 134 % of control; (dose: 16.5 mg/kg/injection, schedule: Q01DX009 (ip), vehicle: saline with Tween-80) 128 % of control; (dose: 25.0 mg/kg/injection, schedule: Q01DX009 (ip), vehicle: saline with Tween-80) 135 % of control; (dose: 25.0 mg/kg/injection, schedule: Q01DX009 (ip), vehicle: saline) 126 % of control; under setting [1], 128 % of control. Besides, the survivor count runs as follows: (dose: 37.5 mg/kg/injection, schedule: Q01DX009 (ip), vehicle: saline with Tween-80) 6 of 6; (dose: 56.25 mg/kg/injection, schedule: Q01DX009 (ip), vehicle: saline with Tween-80) 1 of 6; (dose: 100.0 mg/kg/injection, schedule: Q04DX003 (ip), vehicle: saline) 1 of 6.

`CC1=C(C(=O)Nc2cc(O)ccc2O)C(c2cccc([N+](=O)[O-])c2)C(C(=O)Nc2cc(O)ccc2O)=C(C)N1`: the survivor count is, setting by setting: (dose: 60.0 mg/kg/injection, schedule: Q01DX005 (ip), vehicle: Klucel (hydroxypropylcellulose) (HPC)) 6 of 6; (dose: 120.0 mg/kg/injection, schedule: Q01DX005 (ip), vehicle: Klucel (hydroxypropylcellulose) (HPC)) 6 of 6; (dose: 240.0 mg/kg/injection, schedule: Q01DX005 (ip), vehicle: Klucel (hydroxypropylcellulose) (HPC)) 6 of 6.

In the case of `CCOC(=O)N=C=S`, the survivor count under setting [3] is 3 of 6.

Take `NCCc1nc(-c2nc(C(=O)Nc3ccccc3)cs2)cs1`: for the setting “dose: 200.0 mg/kg/injection, schedule: Q01DX009 (ip), vehicle: distilled water + Tween-80”, the survivor count is listed as 0 of 6.

On to `CC(C)(C)[N]=[V]([Cl])([Cl])[Cl]`, for which the survivor count is 0 of 6 (dose: 100.0 mg/kg/injection, schedule: Q01DX005 (ip), vehicle: Klucel (hydroxypropylcellulose) (HPC)) and 0 of 6 (dose: 200.0 mg/kg/injection, schedule: Q01DX005 (ip), vehicle: Klucel (hydroxypropylcellulose) (HPC)).

In the case of `CC(=O)N[C@@H](Cc1ccc(N(CCCl)CCCl)cc1)C(=O)ON1C(=O)CCC1=O`, the T/C (dose: 1.45 mg/kg/injection, schedule: Q01DX009 (ip), vehicle: saline) was 127 % of control; the T/C (dose: 1.45 mg/kg/injection, schedule: Q03HX008 (ip), vehicle: saline) is 135 % of control; the T/C (dose: 2.9 mg/kg/injection, schedule: Q01DX009 (ip), vehicle: saline) was 140 % of control; the T/C (dose: 2.9 mg/kg/injection, schedule: Q03HX008 (ip), vehicle: saline) is 145 % of control. Also, the survivor count (dose: 46.4 mg/kg/injection, schedule: Q03HX008 (ip), vehicle: saline) is 7 of 10.

As to `[NH-]CC[N-]CCO.[NH-]CC[N-]CCO.[NH-]CC[N-]CCO.[Ni]`, the survivor count (dose: 50.0 mg/kg/injection, schedule: Q01DX005 (ip), vehicle: saline) is recorded as 5 of 5; the survivor count (dose: 100.0 mg/kg/injection, schedule: Q01DX005 (ip), vehicle: saline) was 1 of 5; the survivor count (dose: 200.0 mg/kg/injection, schedule: Q01DX005 (ip), vehicle: saline) is reported as 0 of 5.

With `NCC1OC(OC2C(CO)OC(OC3C(O)C(N)CC(N)C3OC3OC(CN)C(O)C(O)C3N)C2O)C(N)C(O)C1O` (centres undefined), the survivor count (dose: 400.0 mg/kg/injection, schedule: Q01DX001 (ip), vehicle: saline) is listed as 1 of 6.

With `O=C(Nc1ccccc1C(=O)Nc1ccccc1C(=O)O)c1cccnc1`, the survivor count (dose: 400.0 mg/kg/injection, schedule: Q04DX002 (ip), vehicle: saline with Tween-80) is 3 of 6.

In the case of `COc1cc(C2c3cc4c(c(OC)c3C(O)C3CC(=O)OC23)OCO4)cc(OC)c1OC` (centres undefined), the survivor count under setting [4] was 3 of 6.

Turning to `O=c1[nH][nH]c2c([N+](=O)[O-])ccc(F)c12`, the survivor count (dose: 100.0 mg/kg/injection, schedule: Q01DX009 (ip), vehicle: Klucel (hydroxypropylcellulose) (HPC)) is recorded as 6 of 6 and the survivor count (dose: 200.0 mg/kg/injection, schedule: Q01DX009 (ip), vehicle: Klucel (hydroxypropylcellulose) (HPC)) was 6 of 6.

Consider `OC(CC1CCCCN1)c1ccccc1` (centres undefined), for which the survivor count was 0 of 6 under setting [2] and 0 of 6 under setting [3].

`COc1cc(NC(C)CCCN)c2ncccc2c1Sc1ccc(Cl)cc1` (centres undefined): where the note is “dose: 12.5 mg/kg/injection, schedule: Q01DX009 (ip), vehicle: saline with Tween-80”, the survivor count is recorded as 5 of 6.

Take `COC(=O)c1cc(=O)n(-c2ccccc2)c(SC)n1`: the survivor count is, setting by setting: (dose: 25.0 mg/kg/injection, schedule: Q04DX002 (ip), vehicle: Klucel (hydroxypropylcellulose) (HPC)) 6 of 6; (dose: 200.0 mg/kg/injection, schedule: Q04DX002 (ip), vehicle: Klucel (hydroxypropylcellulose) (HPC)) 5 of 5; (dose: 400.0 mg/kg/injection, schedule: Q04DX002 (ip), vehicle: Klucel (hydroxypropylcellulose) (HPC)) 0 of 5.

In the case of `COc1cc2cc3c4cc(OC)c(OC)cc4cc(C)[n+]3cc2cc1OC`, the T/C by setting is: (dose: 25.0 mg/kg/injection, schedule: Q01DX009 (ip), vehicle: other) 139 % of control; (dose: 50.0 mg/kg/injection, schedule: Q01DX009 (ip), vehicle: other) 134 % of control; (dose: 100.0 mg/kg/injection, schedule: Q01DX009 (ip), vehicle: other) 134 % of control; (dose: 200.0 mg/kg/injection, schedule: Q01DX009 (ip), vehicle: other) 139 % of control; (dose: 200.0 mg/kg/injection, schedule: Q01DX009 (ip), vehicle: water) 141 % of control; (dose: 400.0 mg/kg/injection, schedule: Q01DX009 (ip), vehicle: other) 131 % of control [5 of 6 alive]. In addition, for the setting “dose: 400.0 mg/kg/injection, schedule: Q01DX009 (ip), vehicle: water”, the T/C was 144 % of control.

As to `CC/C([O-])=C1/C(=O)N(c2ccccc2)N=C1C.CC/C([O-])=C1/C(=O)N(c2ccccc2)N=C1C.[Cu+2]`, under setting [4], the survivor count was 6 of 6.

These data come from PubChem BioAssay AID330 (DTP/NCI, 2004).
